Measurements: patent EP4484445A1

Experiments:
[1] = molecular target: HCMV Trimer complex (gH/gL/gO) (Human Cytomegalovirus, strain TR); experiment: binding analysis (ELISA on coated protein)
[2] = molecular target: HCMV Trimer complex (gH/gL/gO) (Human Cytomegalovirus, strain TR); experiment: binding analysis of isolated mAbs (ELISA on coated protein)

B1: CS2it1p2_F7K (antibody, V domains shown)
VH: QVQLVQSGAEVKKPGASVRVSCKVSGYTLTDLSIHWVRQAPGKGLEWMGGFDPEHGEIMYAQKFQGRVTVTEDTSTHTTYMEVNSLRSEDTAVYYCATDSSIAMTGTYFSDLFALDVWGQGTTVIVSS
VL: DIQMTQSPSSLSASVGDRVTITCRASQTINTNLNWYQQKPGKAPRLLIFGTFSLKSGVPSRFSGGGSGTDFTLTISSLQPEDFAAYFCQQSHSPPHTFGQGTKLELK
[1]
  binding: binds
[2]
  binding: binds

Results are given in words; binding and its absence hold for the method and conditions named. Binding can be weak; no strength is given.
